One substance from publication PMC8170045 can be followed below.

By UniProt entry, the sequences of proteins in these tests, tags left out. Where a name states a change or a piece, a line headed by the entry shows the natural chain unless it says otherwise.
UniProt P05556: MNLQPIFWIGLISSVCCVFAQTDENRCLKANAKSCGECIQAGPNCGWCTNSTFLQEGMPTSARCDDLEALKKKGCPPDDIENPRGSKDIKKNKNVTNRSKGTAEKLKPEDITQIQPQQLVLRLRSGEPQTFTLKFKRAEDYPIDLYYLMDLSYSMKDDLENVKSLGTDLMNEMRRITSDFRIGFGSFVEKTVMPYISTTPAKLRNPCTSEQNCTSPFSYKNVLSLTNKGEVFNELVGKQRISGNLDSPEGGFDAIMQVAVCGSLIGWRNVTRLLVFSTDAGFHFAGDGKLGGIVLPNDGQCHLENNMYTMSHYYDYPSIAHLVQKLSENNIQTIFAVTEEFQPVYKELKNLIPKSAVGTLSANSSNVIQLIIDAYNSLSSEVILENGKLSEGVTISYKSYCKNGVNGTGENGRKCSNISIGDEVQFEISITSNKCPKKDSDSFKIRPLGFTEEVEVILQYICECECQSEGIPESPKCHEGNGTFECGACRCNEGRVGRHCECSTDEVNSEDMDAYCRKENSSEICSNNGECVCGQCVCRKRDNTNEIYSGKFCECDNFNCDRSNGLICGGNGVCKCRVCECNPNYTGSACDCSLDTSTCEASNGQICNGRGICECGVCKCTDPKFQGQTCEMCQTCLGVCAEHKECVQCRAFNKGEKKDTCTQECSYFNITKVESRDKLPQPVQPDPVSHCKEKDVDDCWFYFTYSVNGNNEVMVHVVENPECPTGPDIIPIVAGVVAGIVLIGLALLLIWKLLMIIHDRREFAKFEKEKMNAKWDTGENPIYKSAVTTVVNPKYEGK

These are yes or no findings as the source states them, for the method shown. Binding seen in cells or lysates may run through a third protein. Some results given as binding are weak or reduced against the parent protein; the word gives no strength.

The target in the experiment is T1, DCBLD2 (discoidin, CUB and LCCL domain containing 2) (human (endogenous in HCT116)) (UniProt Q96PD2).
T1 sequence: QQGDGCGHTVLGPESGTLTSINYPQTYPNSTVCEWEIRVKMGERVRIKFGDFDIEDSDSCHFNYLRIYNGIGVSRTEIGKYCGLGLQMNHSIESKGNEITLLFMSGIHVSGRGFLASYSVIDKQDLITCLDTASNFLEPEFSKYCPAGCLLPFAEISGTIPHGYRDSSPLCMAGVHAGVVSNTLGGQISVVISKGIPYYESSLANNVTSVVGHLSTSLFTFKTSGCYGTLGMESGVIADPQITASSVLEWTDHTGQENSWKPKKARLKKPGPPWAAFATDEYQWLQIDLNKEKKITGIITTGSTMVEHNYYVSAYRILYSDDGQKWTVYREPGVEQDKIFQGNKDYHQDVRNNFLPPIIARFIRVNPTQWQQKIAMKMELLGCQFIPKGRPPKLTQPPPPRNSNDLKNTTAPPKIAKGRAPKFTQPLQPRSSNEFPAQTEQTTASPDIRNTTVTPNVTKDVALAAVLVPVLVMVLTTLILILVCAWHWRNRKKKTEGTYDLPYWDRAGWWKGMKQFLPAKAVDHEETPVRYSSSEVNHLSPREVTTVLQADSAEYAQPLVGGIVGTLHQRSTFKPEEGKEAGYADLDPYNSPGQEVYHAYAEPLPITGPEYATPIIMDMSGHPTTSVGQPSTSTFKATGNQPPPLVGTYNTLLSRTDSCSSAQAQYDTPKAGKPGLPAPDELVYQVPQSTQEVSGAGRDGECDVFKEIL
The experiment in a line: co-IP; HCT116 lysate (Hepes, KCl, MgCl2, EDTA, Triton-X100 lysis buffer); immunoprecipitated with DCBLD2 or ITGB1 antibodies (4 ug) on Protein A/G agarose beads overnight at 4°C, washed with PBS 3 times; immunoblotted with ITGB1 or DCBLD2 antibodies, respectively. For orientation: Immunoblotting shows a protein as a band on a membrane.

For ITGB1 (from UniProt P05556 21-798), the binding entry was “binds”.
